Results taken from patent publication US9969697B2, “3,4-dihydroquinazoline derivative and combination comprising the same” (UNIVERSITY-INDUSTRY COOPERATION GROUP OF KYUNG HEE …, priority 2014, dated 2018).
The name of at least one read-out is uncertain.

Test system: lung cancer cells (A549)
Assay: Cell cycle analysis by PI staining / flow cytometry, with combination index
Format: cell-based, human
Parameters: SubG1: unit not given here
Details: Table 1
Protocol: To measure the inviability of cancer cells quantitatively, the cell cycle thereof was analyzed through flow cytometry as follows, in accordance with the method given in the document [See Kim, Y. H. et al., Expression of the murine homologue of the cell cycle control protein […] in T lymphocytes.
After adding ribonuclease (2.5 μg/ml) and propidium iodide (50 μg/ml) together with 500 μl of PBS, the cells were left for 30 minutes in the dark at room temperature, followed by analyzing cell cycle within 1 hour using FACScan flow cytometer (Becton Dickinson Co, Heidelberg, Germany).
Combination index (CI) mathematically expresses the cytotoxicity on cancer cells or growth inhibition of cancer cells through relative comparison after treating drugs alone or in a combination. The CI is the quantitative concept introduced by Paul Talalay and Ting-Chao Chou and was calculated using CalcuSyn software. The effect of combination treatment according to the values of CI was defined as follows.

Compound	G0/G1 (A549, 24 Hours)	G2/M (A549, 24 Hours)	S (A549, 24 Hours)	SubG1 (A549, 24 Hours)	G0/G1 (A549, 48 Hours)	G2/M (A549, 48 Hours)	S (A549, 48 Hours)	SubG1 (A549, 48 Hours)
CN(C)C(=O)NCCCN(C)C1=Nc2ccccc2C(CC(=O)NCc2ccc(F)cc2)N1c1ccc(C2CCCCC2)cc1 (stereo not drawn) [Compound I-2, 4-[N-(4-fluorobenzyl)acetamido]-3-(4-cyclohexylphenyl)-2-[N—(N′,N′-dimethylureidopropyl)-N-methyl]amino-3,4-dihydroquinazoline]	63.6	19.3	12.4	4.7	67.7	14.3	14.5	3.5
CN(C)C(=O)NCCCN(C)C1=Nc2ccccc2C(CC(=O)NCc2ccccc2)N1c1ccc(C2CCCCC2)cc1 (stereo not drawn) [Compound I-1, 4-(N-benzylacetamido)-3-(4-cyclohexylphenyl)-2-[N—(N′,N′-dimethylureidopropyl)-N-methyl]amino-3,4-dihydroquinazoline]	65.5	14.8	16.1	3.6	59.9	17.7	15.8	6.6
COCC(=O)O[C@]1(CCN(C)CCCc2nc3ccccc3[nH]2)CCc2cc(F)ccc2[C@@H]1C(C)C [Mibefradil]	67.3	17.1	10.4	5.3	55.9	14.9	18.8	10.3
